The test is described as follows: qHTS Assay for Lipid Storage Modulators in Drosophila S3 Cells.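 As to cell number change: cells counted by Cell Tracker Red CMTPX staining in the red channel.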 Particulars: BODIPY lipid droplet fluorescence, 18-24 h; for cell number change: measured here: cell count max response, cells fed with added oleic acid. In outline:
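Drosophila S3 cells loaded with oleic acid (400 uM, as added) and compounds at several concentrations; lipid droplets imaged by 488-nm laser-scanning cytometry, 500–530 nm intensity and object ratio to cell channel. Percent activity normalized to 20 uM Triacsin C.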

The mark [1] stands for this setting: measured here: lipid fluorescence (Fed channel) AC50, cells fed with added oleic acid.
Setting [2] is: measured here: cell number channel AC50, cells fed with added oleic acid.

The other results are listed elsewhere or left out. Shown are side measurements of this screen, not its main read-out; they come without a call. Compounds called inactive in the main read-out are mostly missing here. Words in brackets tell the shape of the fitted curve; partial curves, single points and poor fits give uncertain potencies.

`CC(=O)Nc1ccc(S(=O)(=O)N(C)CC(=O)OCC(=O)N(C)C2CCS(=O)(=O)C2)cc1` (stereo not drawn): the cell number change is -17.9%.

Consider `CCn1cc(C(=O)NCc2ccccc2Cl)cn1`, for which the cell number change amounted to 15%. Besides, under setting [1], the AC50 is 32.6 µM [rising, single point].

Regarding `N#CCn1nnc(-c2ccc3c(c2)OCO3)n1`, the cell number change was -4.26%. Further, the AC50 under setting [1] was 29.1 µM [rising, single point].

For `O=C(c1ccco1)c1cc2c(ccc3ccccc32)oc1=O`, the cell number change was -43.5%. Besides, under setting [1], the AC50 is 2.59 µM [rising, full curve].

`COC(=O)c1sccc1NC(=O)CSCC(=O)O`: the AC50 by setting is: under setting [2], 6.51 µM [falling, single point]; under setting [1], 6.51 µM [falling, partial curve].

Turning to `COC(=O)C(NS(=O)(=O)c1cccc(S(=O)(=O)NC(C(=O)OC)c2ccccc2)c1)c1ccccc1` (stereo not drawn), the cell number change is -0.971%. Moreover, under setting [1], the AC50 was 23.1 µM [falling, single point].

`O=C(O)CSCC(=O)NCc1cccc(C(F)(F)F)c1`: the cell number change turned out to be 19.9%.

`COc1ccc(OCC(=O)NNC(=O)c2nn(C)c(=O)c3ccccc23)cc1`: the cell number change was 0.494%.

Consider `CC1(C)CC(=O)c2cc(N=C/C(C(=O)c3ccccc3)=C(\O)c3ccccc3)c(=O)oc2C1`, for which the cell number change is -31.8%. The AC50 under setting [2] was 29.1 µM [falling, single point].

As to `COC(=O)c1sc(-c2ccccc2)cc1NC(=O)c1cc(OC)cc(OC)c1`, the cell number change is 14.1%. Besides, under setting [2], the AC50 was 0.58 µM [falling, single point]. Besides, the AC50 under setting [1] is 0.326 µM [rising, full curve, poor fit].

For the molecule `COc1ccc(C(=O)Nc2ccc(NC(=O)C3CC3)nc2)cc1`, the cell number change was -12%. The AC50 under setting [1] is 29.1 µM [falling, single point].

For `CN(CC(=O)Nc1ccc(F)cc1)C(=O)COC(=O)COc1ccc(C#N)cc1`, the cell number change is -20.8%. Further, the AC50 under setting [1] was 2.31 µM [falling, full curve].

As to `O=C(c1cc(Cl)ccc1O)N1CCN(S(=O)(=O)c2cccs2)CC1`, the cell number change worked out at 6.43%.

As to `CCOC(=O)c1c(C)[nH]c(C(=O)NNC(=O)c2ccccc2)c1C`, the cell number change amounted to 139%. In addition, under setting [2], the AC50 was 23.1 µM [rising, single point].

With `COc1ccccc1N(C)S(=O)(=O)c1ccc(Cl)c(C(=O)NCC2(N(C)C)CCCCC2)c1`, the cell number change worked out at 2.57%. Moreover, the concentration at half-maximal activity (AC50) under setting [1] was 11.6 µM [falling, partial curve].

Take `Cn1cc(C(=O)N/N=C/c2cc(Br)cs2)c2ccccc21`: the cell number change amounted to 16.5%. For the same molecule, the AC50 under setting [1] was 14.6 µM [rising, single point].

Consider `O=C(c1cc(Cl)ccc1Cl)N1CCN(Cc2ccccc2)CC1`, for which the cell number change turned out to be 21.4%.

Regarding `Cn1c(SCc2cccc3ccccc23)nnc1-c1ccco1`, under setting [1], the AC50 is 0.326 µM [falling, single point].

Consider `Cc1cccc(N=C2NN=C(c3ccc4c(c3)OCCO4)CS2)c1`, for which the cell number change was -19.5%. For the same molecule, the AC50 under setting [1] was 0.517 µM [rising, full curve, poor fit].

In the case of `CN1/C(=C/C(=S)NC(=O)C2CCC2)C(C)(C)c2ccccc21`, the cell number change is -50.2%. The AC50 under setting [2] was 20.6 µM [falling, partial curve, poor fit]. The AC50 under setting [1] is 1.03 µM [falling, partial curve].

For the molecule `CCCCN(C(=O)CCC(=O)Nc1cc(C)on1)C(C(=O)NC(C)(C)CC)c1cccc(OC)c1OC` (stereo not drawn), the cell number change is -23.6%. Besides, under setting [1], the AC50 is 9.2 µM [falling, partial curve].

For the molecule `C=CCSC1=N/C(=C\c2ccsc2)C(=O)S1`, the cell number change is 10.4%. Moreover, under setting [1], the AC50 is 3.26 µM [falling, full curve, poor fit].

Regarding `COc1ccccc1N1CCN(C2CCN(C(=O)c3cc(OC)c(OC)c(OC)c3)CC2)CC1`, the cell number change was determined as 1.08%. For the same molecule, the AC50 under setting [1] was 32.6 µM [rising, single point].

For `O=C(COC(=O)c1cncc(Br)c1)NCc1ccccc1`, the cell number change was -24.4%. The AC50 under setting [1] is 4.11 µM [falling, full curve, poor fit].

On to `COc1ccc(OC)c(S(=O)(=O)NC(C)(C)C)c1`, for which the cell number change is -3.91%. Also, the AC50 under setting [1] is 0.651 µM [falling, full curve, poor fit].

`COc1cccc(N(C(=O)c2snc(C(N)=O)c2N)C(C(=O)NCc2ccccc2)c2ccc(O)cc2)c1` (stereo not drawn): the cell number change was -6.84%.

On to `O=C(NCCc1cccc(F)c1)[C@@H]1CSC2c3ccccc3C(=O)N21` (stereo partly drawn), for which the cell number change is 21.2%. Besides, under setting [1], the AC50 is 0.517 µM [rising, single point].

On to `O=C(CN1C(=O)C2CC=CCC2C1=O)Nc1ccc(F)cc1F` (stereo not drawn), for which the cell number change is -14.1%. Further, the AC50 under setting [1] is 0.082 µM [falling, full curve, poor fit].

`S=C(Nc1ccccc1)N1CCc2ccccc21`: the cell number change turned out to be 15%. The AC50 under setting [1] was 23.1 µM [rising, single point].

For `COCCN(C(=O)c1csnn1)C(C(=O)NC1CCCCC1)c1ccc(C)cc1` (stereo not drawn), the cell number change is -14.3%. Also, the AC50 under setting [1] was 6.51 µM [rising, single point].

For `COc1ccc(CN2CCN(c3ncccn3)CC2)c(C)c1C`, the cell number change was -24.4%. Also, under setting [2], the AC50 was 0.0651 µM [falling, full curve, poor fit].

For `COc1ccccc1NC(=S)N(Cc1ccco1)Cc1cc2cc(C)ccc2[nH]c1=O`, the cell number change came to 5.77%. In addition, the AC50 under setting [1] is 2.31 µM [rising, single point].

For `CCCCN(C(=O)c1cc(S(=O)(=O)N2CCCCCC2)ccc1OC)c1c(N)n(CCC)c(=O)[nH]c1=O`, the AC50 was 5.8 µM [rising, partial curve] under setting [2] and 6.51 µM [rising, single point] under setting [1].

Consider `CN1CCN(C(=O)C2=C[C@@H](c3ccc4c(c3)OCO4)C[C@@H](OCc3ccc(CO)cc3)O2)CC1`, for which the cell number change is -14.6%. Also, the AC50 under setting [1] was 25.9 µM [falling, single point].

With `CN(CCNC(=O)CCNC(=O)Cn1ccc2ccccc2c1=O)Cc1ccccc1`, the cell number change was -30.9%. The AC50 under setting [2] is 23.1 µM [falling, single point]. Besides, under setting [1], the half-maximal activity concentration (AC50) is 29.1 µM [falling, single point].

Take `Cc1ccc(S(=O)(=O)N(CC(=O)Nc2ccc(C)c(Cl)c2)C(=O)N2CCN(C)CC2)cc1`: the cell number change is -19.3%. The AC50 under setting [1] was 11.6 µM [falling, partial curve, poor fit].

`COc1ccc(NC(=O)C2CCCNC2=O)cc1` (stereo not drawn): the cell number change amounted to 27.6%.

Regarding `Cc1cnc([N+](=O)[O-])n1CCOC(=O)NC(=O)c1c(F)cccc1F`, the cell number change came to 121%. Further, the AC50 under setting [2] is 29.1 µM [rising, partial curve, poor fit].

For `CN(CC(=O)Nc1ccc(S(=O)(=O)N2CCCC2)cc1)Cc1c(F)cccc1Cl`, the cell number change was 20.8%. The AC50 under setting [2] is 0.146 µM [rising, full curve, poor fit].

The values are drawn from PubChem BioAssay AID2685 (National Center for Advancing Translational Sciences (NCATS), 2010).
